Results as given in patent US9750242B2, “Nitrite salts as poisons in baits for omnivores” (priority 2007, dated 2017).

Tested on: feral pigs
Assay: Bait delivery trial: sodium nitrite to feral pigs in food
Type: in vivo, feral pig
Experimental: The trials were conducted in October 2005 and June 2006. Both trials were designed to test the hypothesis that SN would be lethal to feral pigs when they consumed the toxin freely in food. […] Before the toxin trial, each feral pig was pre-fed daily for 10 days with the bait substrate they were to receive during the toxin trial (bait or dry wheat). During the trial, six feral pigs acted as controls, receiving no toxin, but receiving bait substrate (carrier material). Three of these received wheat and three received the manufactured baits of the type described in Example 2. The remaining 18 feral pigs were divided into three groups of six animals. Three pigs in each group received 250 or 500 g (depending on body size and therefore total toxic dose to deliver) of wheat and the other three received one or two the baits (again, amount of toxin dependent). […] Feral pigs were observed every 15 minutes for 6 hours, then hourly for 6 hours, then at euthanasia 12 hours after clinical signs developed (if they remained alive). Each dose rate contained six animals divided evenly amongst two bait carrier materials. Six controls were used.

With `O=NO` [SN, Sodium nitrite] the palatability in wheat (135 mgkg^-1, toxin mixed with honey in a clump in wheat) was “two from three feral pigs refused any toxin”, the palatability in wheat (higher doses, toxin mixed throughout the wheat with a tablespoon of honey) was “all feral pigs consumed grain and toxin readily” and the “time to completely consume all bait material” value (most animals) was 10 to 30 min.
